Results are given in words; binding and its absence hold for the method and conditions named. In cells and extracts the contact can be indirect. Some entries that bind do so weakly or less than the wild type.
Biological target: T1, Human SRGN, overexpression construct (pLVX-puro) (human) (UniProt P10124)
T1 sequence: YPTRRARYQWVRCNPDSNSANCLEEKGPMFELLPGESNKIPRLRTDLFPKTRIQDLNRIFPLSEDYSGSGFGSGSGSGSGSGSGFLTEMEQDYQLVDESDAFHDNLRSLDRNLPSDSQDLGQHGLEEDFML
Experiment: co-IP; reciprocal co-IP of SRGN with CD44s or CD44v3-v10 (Supplementary Fig. S4B-E); cells and tags not shown

Amino acid sequences for entries named in this document (tags omitted). A change or cut given only in a name is not applied to a line headed by its entry. Chains listed by the source or under a name are the forms on record and can include a tag or linker.
CD44 standard isoform (CD44s), human, overexpression construct (pCDNA3.1) (P16070-12, form named): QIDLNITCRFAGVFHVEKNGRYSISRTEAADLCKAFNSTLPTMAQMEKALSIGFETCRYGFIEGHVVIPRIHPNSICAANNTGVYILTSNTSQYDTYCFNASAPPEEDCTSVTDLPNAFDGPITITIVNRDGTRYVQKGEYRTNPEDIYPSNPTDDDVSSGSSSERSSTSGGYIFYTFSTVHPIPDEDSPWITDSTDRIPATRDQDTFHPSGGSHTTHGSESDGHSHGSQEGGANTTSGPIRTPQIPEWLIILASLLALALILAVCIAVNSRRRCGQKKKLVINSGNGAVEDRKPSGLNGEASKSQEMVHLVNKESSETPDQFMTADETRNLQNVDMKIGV
CD44 variant isoform (CD44v3-v10), human, overexpression construct (pCDNA3.1) (P16070-4, form named): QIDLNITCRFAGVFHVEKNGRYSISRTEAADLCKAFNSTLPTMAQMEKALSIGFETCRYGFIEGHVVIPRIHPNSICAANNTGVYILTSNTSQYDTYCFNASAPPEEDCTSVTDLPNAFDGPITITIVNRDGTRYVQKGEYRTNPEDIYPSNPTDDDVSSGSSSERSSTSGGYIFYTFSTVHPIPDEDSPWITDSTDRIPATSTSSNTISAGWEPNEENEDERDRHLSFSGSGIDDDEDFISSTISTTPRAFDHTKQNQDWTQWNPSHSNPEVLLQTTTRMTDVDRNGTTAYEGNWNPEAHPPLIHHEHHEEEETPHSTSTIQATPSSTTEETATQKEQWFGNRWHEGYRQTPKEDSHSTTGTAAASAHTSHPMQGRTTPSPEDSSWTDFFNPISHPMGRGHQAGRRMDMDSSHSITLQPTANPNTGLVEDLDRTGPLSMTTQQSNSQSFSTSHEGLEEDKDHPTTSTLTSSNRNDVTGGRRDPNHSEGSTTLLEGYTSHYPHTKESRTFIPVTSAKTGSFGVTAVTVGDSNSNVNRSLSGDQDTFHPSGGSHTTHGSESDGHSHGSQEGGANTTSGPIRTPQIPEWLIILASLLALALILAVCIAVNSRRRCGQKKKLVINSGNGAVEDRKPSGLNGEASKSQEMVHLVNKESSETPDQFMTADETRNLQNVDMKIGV

binding | Substance
binds | CD44 standard isoform (CD44s), human, overexpression construct (pCDNA3.1) (from UniProt P16070-12 21-361) (receptor)
binds | CD44 variant isoform (CD44v3-v10), human, overexpression construct (pCDNA3.1) (from UniProt P16070-4 21-699) (receptor)

Reference: PMC8460728
